Results from patent US20110294748A1 (Janssen / Centocor, published 2011).
Results are given in words; binding and its absence hold for the method and conditions named. A result given as binding can be weak or reduced; the word gives no strength.

Biological target: insulin receptor
Experiment: phage ELISA, phage lysate

Binder | binding
TGCDFPELCRGCHP (peptide, not shown: large carriers) [phage clone 5 (peptide SEQ ID NO: 1 displayed on pIX phage)] | binds
AGCPSPMPPVDPGFYSAIVQLCRE (peptide, not shown: large carriers) [phage clone 16 (peptide SEQ ID NO: 12 displayed on pIX phage)] | binds
